Test results as given in article PMC11961749.

By UniProt entry, the sequences of proteins in these tests, tags left out. Where a name states a change or a piece, a line headed by the entry shows the natural chain unless it says otherwise.
UniProt Q9NRC8: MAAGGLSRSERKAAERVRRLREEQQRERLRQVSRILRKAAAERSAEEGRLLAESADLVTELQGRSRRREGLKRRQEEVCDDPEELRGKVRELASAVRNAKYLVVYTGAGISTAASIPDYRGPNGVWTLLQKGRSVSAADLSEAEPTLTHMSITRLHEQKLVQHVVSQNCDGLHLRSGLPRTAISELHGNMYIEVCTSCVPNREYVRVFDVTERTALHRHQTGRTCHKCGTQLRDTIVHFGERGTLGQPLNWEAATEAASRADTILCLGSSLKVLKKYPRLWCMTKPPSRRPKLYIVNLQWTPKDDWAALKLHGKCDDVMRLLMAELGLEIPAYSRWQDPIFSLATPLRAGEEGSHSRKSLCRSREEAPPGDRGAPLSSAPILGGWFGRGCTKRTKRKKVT

Biological target: FLAG-tagged SIRT7 H187Y (enzymatic inactive SIRT7) (UniProt Q9NRC8)
Assay: co-IP; Huh7 cells transfected with FLAG-tagged SIRT7, FLAG-tagged SIRT7 HY or FLAG-tagged NRF2; endogenous partner detected by Western blot

B1: NRF2, nuclear factor-E2-related factor 2 (endogenous, Huh7) (protein, UniProt Q16236 1-605)
chain: MMDLELPPPGLPSQQDMDLIDILWRQDIDLGVSREVFDFSQRRKEYELEKQKKLEKERQEQLQKEQEKAFFAQLQLDEETGEFLPIQPAQHIQSETSGSANYSQVAHIPKSDALYFDDCMQLLAQTFPFVDDNEVSSATFQSLVPDIPGHIESPVFIATNQAQSPETSVAQVAPVDLDGMQQDIEQVWEELLSIPELQCLNIENDKLVETTMVPSPEAKLTEVDNYHFYSSIPSMEKEVGNCSPHFLNAFEDSFSSILSTEDPNQLTVNSLNSDATVNTDFGDEFYSAFIAEPSISNSMPSPATLSHSLSELLNGPIDVSDLSLCKAFNQNHPESTAEFNDSDSGISLNTSPSVASPEHSVESSSYGDTLLGLSDSEVEELDSAPGSVKQNGPKTPVHSSGDMVQPLSPSQGQSTHVHDAQCENTPEKELPVSPGHRKTPFTKDKHSSRLEAHLTRDELRAKALHIPFPVEKIINLPVVDFNEMMSKEQFNEAQLALIRDIRRRGKNKVAAQNCRKRKLENIVELEQDLDHLKDEKEKLLKEKGENDKSLHLLKKQLSTLYLEVFSMLRDEDGKPYSPSEYSLQQTRDGNVFLVPKSKKPDVKKN
In the case of B1, the binding is reported as “binds”.

Results are given in words; binding and its absence hold for the method and conditions named. In cells and extracts the contact can be indirect. Binding can be weak; no strength is given.
